For 36 targets, log2 fold change results are on record in the supplement of paper PMC12819154, “High-throughput peptide-centric local stability assay extends protein–ligand identification to membrane proteins, tissues and bacteria” (Nature Structural & Molecular Biology, 2025).

By UniProt entry, the sequences of proteins in these tests, tags left out. Where a name states a change or a piece, a line headed by the entry shows the natural chain unless it says otherwise.
UniProt Q06180: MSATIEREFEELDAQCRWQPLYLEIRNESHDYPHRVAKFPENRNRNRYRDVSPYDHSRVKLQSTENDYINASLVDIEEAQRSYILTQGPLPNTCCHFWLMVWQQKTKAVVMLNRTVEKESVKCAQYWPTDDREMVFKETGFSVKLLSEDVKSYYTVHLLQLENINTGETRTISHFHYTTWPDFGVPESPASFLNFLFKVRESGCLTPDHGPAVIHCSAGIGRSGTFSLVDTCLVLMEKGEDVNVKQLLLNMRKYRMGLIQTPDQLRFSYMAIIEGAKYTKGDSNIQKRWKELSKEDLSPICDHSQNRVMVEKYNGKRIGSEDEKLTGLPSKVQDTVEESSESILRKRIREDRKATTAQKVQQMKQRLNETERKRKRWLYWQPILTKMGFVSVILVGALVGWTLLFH
UniProt Q3TXT3: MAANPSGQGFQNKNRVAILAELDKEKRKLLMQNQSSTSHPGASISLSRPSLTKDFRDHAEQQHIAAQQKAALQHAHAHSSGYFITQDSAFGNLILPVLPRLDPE
UniProt Q3THS6: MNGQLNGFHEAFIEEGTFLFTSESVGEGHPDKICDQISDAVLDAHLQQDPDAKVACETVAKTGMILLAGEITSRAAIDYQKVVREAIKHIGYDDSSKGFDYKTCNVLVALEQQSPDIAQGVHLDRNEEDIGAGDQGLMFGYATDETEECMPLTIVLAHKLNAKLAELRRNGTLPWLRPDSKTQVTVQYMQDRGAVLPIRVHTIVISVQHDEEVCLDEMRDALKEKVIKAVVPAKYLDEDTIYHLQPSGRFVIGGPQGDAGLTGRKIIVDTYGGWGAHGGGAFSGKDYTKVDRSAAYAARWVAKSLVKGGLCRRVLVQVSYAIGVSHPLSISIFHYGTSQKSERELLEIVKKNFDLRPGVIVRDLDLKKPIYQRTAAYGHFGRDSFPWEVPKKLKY
UniProt Q2TBA3: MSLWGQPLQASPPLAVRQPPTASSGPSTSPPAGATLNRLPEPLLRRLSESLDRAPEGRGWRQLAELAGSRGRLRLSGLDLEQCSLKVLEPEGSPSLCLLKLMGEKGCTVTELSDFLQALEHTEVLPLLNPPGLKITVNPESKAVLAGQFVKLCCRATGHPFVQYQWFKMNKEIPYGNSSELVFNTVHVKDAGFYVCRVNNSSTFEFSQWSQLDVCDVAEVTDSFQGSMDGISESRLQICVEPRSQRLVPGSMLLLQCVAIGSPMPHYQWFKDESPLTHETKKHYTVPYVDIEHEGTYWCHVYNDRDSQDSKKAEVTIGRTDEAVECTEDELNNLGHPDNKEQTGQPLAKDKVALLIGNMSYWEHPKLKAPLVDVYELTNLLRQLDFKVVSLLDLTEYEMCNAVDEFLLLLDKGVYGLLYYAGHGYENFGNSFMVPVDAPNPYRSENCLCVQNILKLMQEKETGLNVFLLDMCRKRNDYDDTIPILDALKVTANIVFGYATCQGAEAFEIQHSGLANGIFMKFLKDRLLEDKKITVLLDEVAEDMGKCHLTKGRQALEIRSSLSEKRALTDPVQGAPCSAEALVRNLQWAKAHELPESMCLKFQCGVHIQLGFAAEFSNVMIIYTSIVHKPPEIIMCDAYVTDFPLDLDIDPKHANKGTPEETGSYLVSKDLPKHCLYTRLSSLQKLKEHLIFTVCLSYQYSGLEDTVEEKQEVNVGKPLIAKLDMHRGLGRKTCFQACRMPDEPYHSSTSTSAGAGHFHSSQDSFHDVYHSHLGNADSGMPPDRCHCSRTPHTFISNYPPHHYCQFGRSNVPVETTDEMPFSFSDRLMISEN
UniProt Q149L6: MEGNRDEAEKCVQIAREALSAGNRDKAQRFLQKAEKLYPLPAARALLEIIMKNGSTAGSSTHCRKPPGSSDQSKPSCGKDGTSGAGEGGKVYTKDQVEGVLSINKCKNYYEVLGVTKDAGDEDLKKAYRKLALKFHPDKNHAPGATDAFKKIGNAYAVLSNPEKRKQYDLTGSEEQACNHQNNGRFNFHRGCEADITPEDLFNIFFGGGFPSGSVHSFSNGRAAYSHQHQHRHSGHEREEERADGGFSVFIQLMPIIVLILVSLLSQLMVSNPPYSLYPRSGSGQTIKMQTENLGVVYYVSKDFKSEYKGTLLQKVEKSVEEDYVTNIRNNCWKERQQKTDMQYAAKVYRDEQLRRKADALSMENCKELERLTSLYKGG
UniProt Q03141: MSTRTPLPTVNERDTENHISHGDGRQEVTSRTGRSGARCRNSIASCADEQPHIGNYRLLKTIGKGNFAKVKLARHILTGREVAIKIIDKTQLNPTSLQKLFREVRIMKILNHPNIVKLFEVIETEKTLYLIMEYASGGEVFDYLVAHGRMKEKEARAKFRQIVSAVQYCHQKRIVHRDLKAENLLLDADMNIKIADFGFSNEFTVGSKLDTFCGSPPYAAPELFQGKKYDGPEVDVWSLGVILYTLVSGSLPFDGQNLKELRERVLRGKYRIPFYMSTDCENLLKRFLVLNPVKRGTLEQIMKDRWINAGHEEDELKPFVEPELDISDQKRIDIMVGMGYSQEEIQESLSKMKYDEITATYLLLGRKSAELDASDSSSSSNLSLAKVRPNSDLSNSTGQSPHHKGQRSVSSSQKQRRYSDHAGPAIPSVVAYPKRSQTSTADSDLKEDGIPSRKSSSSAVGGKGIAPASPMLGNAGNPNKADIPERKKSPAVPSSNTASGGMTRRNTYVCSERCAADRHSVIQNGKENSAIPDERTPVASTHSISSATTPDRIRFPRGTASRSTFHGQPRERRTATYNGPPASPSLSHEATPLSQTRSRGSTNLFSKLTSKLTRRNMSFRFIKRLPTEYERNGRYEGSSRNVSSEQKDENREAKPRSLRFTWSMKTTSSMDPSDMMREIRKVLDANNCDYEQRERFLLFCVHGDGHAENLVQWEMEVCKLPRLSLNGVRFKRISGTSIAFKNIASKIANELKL
UniProt Q3TZX8: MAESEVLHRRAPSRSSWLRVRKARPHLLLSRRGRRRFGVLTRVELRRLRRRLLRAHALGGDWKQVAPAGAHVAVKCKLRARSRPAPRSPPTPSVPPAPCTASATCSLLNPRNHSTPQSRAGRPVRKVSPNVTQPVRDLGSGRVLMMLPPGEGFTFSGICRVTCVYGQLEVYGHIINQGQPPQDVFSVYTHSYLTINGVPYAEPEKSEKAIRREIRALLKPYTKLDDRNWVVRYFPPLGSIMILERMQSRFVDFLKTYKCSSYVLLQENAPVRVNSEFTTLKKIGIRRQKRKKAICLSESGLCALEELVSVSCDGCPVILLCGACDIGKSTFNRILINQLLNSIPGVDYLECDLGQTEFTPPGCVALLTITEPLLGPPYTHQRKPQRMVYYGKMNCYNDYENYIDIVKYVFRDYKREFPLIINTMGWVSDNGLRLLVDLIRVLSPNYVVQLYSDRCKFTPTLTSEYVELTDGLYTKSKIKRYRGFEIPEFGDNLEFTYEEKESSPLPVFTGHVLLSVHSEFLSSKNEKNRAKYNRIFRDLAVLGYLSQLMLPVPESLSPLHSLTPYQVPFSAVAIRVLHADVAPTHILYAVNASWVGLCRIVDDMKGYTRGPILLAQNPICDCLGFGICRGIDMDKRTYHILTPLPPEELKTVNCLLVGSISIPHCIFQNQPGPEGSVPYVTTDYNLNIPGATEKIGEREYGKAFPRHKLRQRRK
UniProt Q0GNC1, whole entry: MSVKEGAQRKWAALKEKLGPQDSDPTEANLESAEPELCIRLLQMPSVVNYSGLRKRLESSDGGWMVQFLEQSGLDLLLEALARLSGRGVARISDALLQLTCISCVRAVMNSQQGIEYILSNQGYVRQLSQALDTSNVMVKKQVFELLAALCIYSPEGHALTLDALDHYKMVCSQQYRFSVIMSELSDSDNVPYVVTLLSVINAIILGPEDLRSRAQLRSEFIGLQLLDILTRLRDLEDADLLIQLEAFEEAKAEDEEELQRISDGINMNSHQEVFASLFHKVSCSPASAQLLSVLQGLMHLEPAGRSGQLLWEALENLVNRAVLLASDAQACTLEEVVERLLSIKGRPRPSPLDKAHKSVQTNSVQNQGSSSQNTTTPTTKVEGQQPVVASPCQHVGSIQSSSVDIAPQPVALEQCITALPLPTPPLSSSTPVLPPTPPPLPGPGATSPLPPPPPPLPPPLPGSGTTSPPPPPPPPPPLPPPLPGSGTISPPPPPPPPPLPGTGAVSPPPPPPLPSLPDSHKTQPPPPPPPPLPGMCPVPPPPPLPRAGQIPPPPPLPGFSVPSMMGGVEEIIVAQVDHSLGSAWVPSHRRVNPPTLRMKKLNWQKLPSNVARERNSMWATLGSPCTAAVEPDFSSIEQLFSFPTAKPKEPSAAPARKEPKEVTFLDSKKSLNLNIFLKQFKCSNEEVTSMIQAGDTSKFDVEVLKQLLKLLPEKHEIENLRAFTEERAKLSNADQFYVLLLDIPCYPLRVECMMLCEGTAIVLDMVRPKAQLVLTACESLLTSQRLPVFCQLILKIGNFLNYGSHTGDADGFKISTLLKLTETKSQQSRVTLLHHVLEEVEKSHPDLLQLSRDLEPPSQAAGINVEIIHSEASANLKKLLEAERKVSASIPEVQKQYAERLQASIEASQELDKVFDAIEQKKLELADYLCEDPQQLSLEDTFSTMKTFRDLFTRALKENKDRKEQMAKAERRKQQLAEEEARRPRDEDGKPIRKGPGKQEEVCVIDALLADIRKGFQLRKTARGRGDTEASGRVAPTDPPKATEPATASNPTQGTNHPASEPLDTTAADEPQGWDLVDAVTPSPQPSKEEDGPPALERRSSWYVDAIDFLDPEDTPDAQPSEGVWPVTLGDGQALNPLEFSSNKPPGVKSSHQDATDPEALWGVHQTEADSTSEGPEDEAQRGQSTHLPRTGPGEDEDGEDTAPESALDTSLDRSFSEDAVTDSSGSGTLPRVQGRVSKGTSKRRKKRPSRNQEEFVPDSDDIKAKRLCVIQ
UniProt Q08639: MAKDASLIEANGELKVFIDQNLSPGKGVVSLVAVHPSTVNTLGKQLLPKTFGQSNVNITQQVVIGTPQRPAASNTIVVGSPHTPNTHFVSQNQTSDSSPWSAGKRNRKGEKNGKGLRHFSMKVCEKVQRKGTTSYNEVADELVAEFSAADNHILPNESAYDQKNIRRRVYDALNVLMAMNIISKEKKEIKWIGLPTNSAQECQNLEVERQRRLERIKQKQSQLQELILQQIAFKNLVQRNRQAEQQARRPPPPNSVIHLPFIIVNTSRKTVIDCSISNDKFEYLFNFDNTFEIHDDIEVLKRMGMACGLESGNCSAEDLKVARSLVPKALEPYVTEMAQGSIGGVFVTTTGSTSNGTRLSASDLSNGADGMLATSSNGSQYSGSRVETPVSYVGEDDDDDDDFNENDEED
UniProt Q2VLH6: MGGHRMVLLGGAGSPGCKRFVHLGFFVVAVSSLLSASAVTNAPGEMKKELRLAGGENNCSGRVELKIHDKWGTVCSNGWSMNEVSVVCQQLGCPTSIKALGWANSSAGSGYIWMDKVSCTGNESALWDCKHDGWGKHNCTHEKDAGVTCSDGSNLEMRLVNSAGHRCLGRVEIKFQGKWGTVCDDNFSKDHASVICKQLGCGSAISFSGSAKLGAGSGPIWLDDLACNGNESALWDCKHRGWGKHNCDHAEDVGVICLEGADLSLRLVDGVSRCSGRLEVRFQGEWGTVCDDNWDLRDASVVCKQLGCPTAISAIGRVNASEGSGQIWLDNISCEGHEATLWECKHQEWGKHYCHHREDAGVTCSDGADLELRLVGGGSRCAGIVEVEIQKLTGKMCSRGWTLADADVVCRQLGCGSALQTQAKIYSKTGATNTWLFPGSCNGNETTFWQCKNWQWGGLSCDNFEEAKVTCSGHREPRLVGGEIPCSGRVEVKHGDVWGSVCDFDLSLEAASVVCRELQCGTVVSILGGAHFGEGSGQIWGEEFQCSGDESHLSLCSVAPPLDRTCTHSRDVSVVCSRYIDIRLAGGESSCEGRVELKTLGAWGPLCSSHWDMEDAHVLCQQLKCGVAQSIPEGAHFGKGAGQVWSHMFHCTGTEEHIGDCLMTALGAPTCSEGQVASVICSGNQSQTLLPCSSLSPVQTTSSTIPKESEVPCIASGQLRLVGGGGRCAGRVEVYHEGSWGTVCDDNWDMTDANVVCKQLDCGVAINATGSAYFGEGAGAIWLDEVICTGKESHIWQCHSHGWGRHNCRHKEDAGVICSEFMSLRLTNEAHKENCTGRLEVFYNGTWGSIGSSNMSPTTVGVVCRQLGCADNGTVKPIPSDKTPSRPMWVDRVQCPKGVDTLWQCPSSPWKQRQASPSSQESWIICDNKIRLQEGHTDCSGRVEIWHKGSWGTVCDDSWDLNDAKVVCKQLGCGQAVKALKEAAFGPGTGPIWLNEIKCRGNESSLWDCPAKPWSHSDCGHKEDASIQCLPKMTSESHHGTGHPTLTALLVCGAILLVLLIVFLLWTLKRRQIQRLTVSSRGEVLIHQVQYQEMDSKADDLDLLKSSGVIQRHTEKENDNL
UniProt Q3TBL6: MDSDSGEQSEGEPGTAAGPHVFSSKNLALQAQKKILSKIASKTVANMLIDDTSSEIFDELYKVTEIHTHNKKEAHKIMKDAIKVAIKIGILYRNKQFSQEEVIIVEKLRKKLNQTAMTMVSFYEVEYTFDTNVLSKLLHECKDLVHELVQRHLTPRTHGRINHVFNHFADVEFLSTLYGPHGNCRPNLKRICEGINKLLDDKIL

This is one part of the list. Most entries show no effect beyond the scatter of the controls.

Compound in the assay: CN[C@@H]1C[C@H]2O[C@@](C)([C@@H]1OC)n1c3ccccc3c3c4c(c5c6ccccc6n2c5c31)C(=O)NC4 [staurosporine]
In words: log2 fold change of tryptic peptide abundance, ligand vs vehicle (limited proteolysis) (log2 ratio); higher = more trypsin-susceptible (destabilized). To be noted: ligand concentration: 20 uM; sample: mouse liver crude lysate; replicate design: treated separately.
“UniProt Q3THG9 (peptide sequence: SSPAWGGVVTLHRK, peptide start residue: 306)”: the log2 fold change is -0.479.

Take “UniProt Q08874 (peptide sequence: WNKGTILK, peptide start residue: 271)”: the log2 fold change worked out at 0.527.

“UniProt Q08509 (peptide sequence: ADPPYTHTIQK, peptide start residue: 597)”: the log2 fold change was -0.17.

Take “UniProt Q04736 (peptide sequence: LTTVCPTVKPQTQGLAK, peptide start residue: 249)”: the log2 fold change worked out at 0.519.

Turning to “UniProt Q3TVC7 (peptide sequence: VNGEATVLTTHFSK, peptide start residue: 60)”, the log2 fold change turned out to be 0.351.

Consider “UniProt Q3TMW1 (peptide sequence: IKYEELSK, peptide start residue: 291)”, for which the log2 fold change was -0.101.

With “UniProt Q14AI6 (peptide sequence: LSPSQVAQMPLHLHLHR, peptide start residue: 293)”, the log2 fold change is 0.149.

In the case of “UniProt Q08093 (peptide sequence: NHILPPMDHCTISLQMGTNK, peptide start residue: 195)”, the log2 fold change was -0.491.

Regarding “UniProt Q3TVI4 (peptide sequence: AHGEFQQR, peptide start residue: 183)”, the log2 fold change came to 0.333.

“UniProt Q06180 (peptide sequence: VQDTVEESSESILRK, peptide start residue: 332)”: the log2 fold change is -0.552.

As to “UniProt Q3TXT3 (peptide sequence: LLMQNQSSTSHPGASISLSRPSLTK, peptide start residue: 29)”, the log2 fold change is -0.451.

As for “UniProt Q04750 (peptide sequence: YIMLNPSSR, peptide start residue: 428)”, the log2 fold change was 0.18.

Take “UniProt Q3THS6 (peptide sequence: HIGYDDSSKGFDYK, peptide start residue: 89)”: the log2 fold change was -0.518.

For the target “UniProt Q05793 (peptide sequence: LNWGHIPAHPR, peptide start residue: 442)”, the log2 fold change was determined as 0.831.

With “UniProt Q2TBA3 (peptide sequence: QLAELAGSR, peptide start residue: 62)”, the log2 fold change is -0.125.

With “UniProt Q3TIR1 (peptide sequence: MAPGYGDVR, peptide start residue: 299)”, the log2 fold change is -0.219.

For “UniProt Q3TFK5 (peptide sequence: HEEDGEMGVCDEGGRDVTSRPK, peptide start residue: 292)”, the log2 fold change was -0.408.

Regarding “UniProt Q06890 (peptide sequence: VSTVTTHSSDSEVPSR, peptide start residue: 385)”, the log2 fold change turned out to be 0.168.

On to “UniProt Q3TN34 (peptide sequence: VPNVVTAPTSK, peptide start residue: 458)”, for which the log2 fold change was 0.387.

Regarding “UniProt Q0P5W1 (peptide sequence: QDENTKEDILLK, peptide start residue: 1101)”, the log2 fold change stood at 0.469.

On to “UniProt Q02819 (peptide sequence: VYDPKNEEDDMR, peptide start residue: 275)”, for which the log2 fold change was -0.61.

Consider “UniProt Q3TTA7 (peptide sequence: TVEKTWK, peptide start residue: 174)”, for which the log2 fold change is -0.244.

On to “UniProt Q3U3C9 (peptide sequence: SFRPYHTAEDLR, peptide start residue: 221)”, for which the log2 fold change was -0.6.

“UniProt Q149L6 (peptide sequence: AAYSHQHQHR, peptide start residue: 223)”: the log2 fold change was -0.919.

Turning to “UniProt Q03141 (peptide sequence: SQTSTADSDLKEDGIPSR, peptide start residue: 436)”, the log2 fold change was 0.322.

Regarding “UniProt Q04207 (peptide sequence: RTYETFK, peptide start residue: 304)”, the log2 fold change is -0.584.

As to “UniProt Q3U2U7 (peptide sequence: QDSAPTEEKLR, peptide start residue: 122)”, the log2 fold change was -0.593.

Regarding “UniProt Q3TZX8 (peptide sequence: QVAPAGAHVAVKCKLR, peptide start residue: 64)”, the log2 fold change is 0.367.

Regarding “UniProt Q0GNC1 (peptide sequence: LNWQKLPSNVAR, peptide start residue: 602)”, the log2 fold change was -0.391.

With “UniProt Q05915 (peptide sequence: TVTSTMLGVFREDPK, peptide start residue: 216)”, the log2 fold change is -0.485.

“UniProt Q08639 (peptide sequence: VFIDQNLSPGK, peptide start residue: 16)”: the log2 fold change was -0.121.

Take “UniProt Q2VLH6 (peptide sequence: GEVLIHQVQYQEMDSK, peptide start residue: 1082)”: the log2 fold change is -0.113.

As to “UniProt Q3TBL6 (peptide sequence: NLALQAQKK, peptide start residue: 26)”, the log2 fold change is -0.296.

As for “UniProt Q05CL8 (peptide sequence: VLSKTEWMDLKK, peptide start residue: 374)”, the log2 fold change is -0.419.

As to “UniProt Q3TXX3 (peptide sequence: SSMGATAPEAQR, peptide start residue: 389)”, the log2 fold change came out at 0.192.

Regarding “UniProt Q2VPU4 (peptide sequence: TMEYITK, peptide start residue: 760)”, the log2 fold change is -0.543.
